Reference: patent publication US6458926
These are yes or no findings as the source states them, for the method shown. Binding seen in cells or lysates may run through a third protein. Some entries that bind do so weakly or less than the wild type.

Protein sequences, listed by entry. Tags and fused reporters are not part of them.
UniProt P19793: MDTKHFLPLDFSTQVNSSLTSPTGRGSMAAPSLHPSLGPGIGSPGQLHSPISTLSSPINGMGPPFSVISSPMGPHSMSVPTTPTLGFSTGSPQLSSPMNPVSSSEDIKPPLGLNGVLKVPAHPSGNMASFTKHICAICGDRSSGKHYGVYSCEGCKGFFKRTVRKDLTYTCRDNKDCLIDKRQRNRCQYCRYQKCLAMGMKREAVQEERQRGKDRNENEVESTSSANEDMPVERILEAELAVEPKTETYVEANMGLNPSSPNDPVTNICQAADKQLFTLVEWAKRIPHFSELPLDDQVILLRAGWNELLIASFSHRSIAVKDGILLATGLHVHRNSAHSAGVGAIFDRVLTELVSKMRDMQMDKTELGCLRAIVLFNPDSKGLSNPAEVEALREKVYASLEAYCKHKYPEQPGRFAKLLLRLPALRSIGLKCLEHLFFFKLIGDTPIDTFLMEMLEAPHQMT

Target: GST-hRXRα (bacterially expressed glutathione-S-transferase-RXRα fusion protein) (human) (UniProt P19793)
Assay: glutathione-sepharose pull-down of GST-RXR with purified T3R, read out by bound [125I]T3

- binding: binds
B1: chicken T3Rα1 (receptor, UniProt P04625 1-408, looked up)
chain: MEQKPSTLDPLSEPEDTRWLDGKRKRKSSQCLVKSSMSGYIPSYLDKDEQCVVCGDKATGYHYRCITCEGCKGFFRRTIQKNLHPTYSCKYDGCCVIDKITRNQCQLCRFKKCISVGMAMDLVLDDSKRVAKRKLIEENRERRRKEEMIKSLQHRPSPSAEEWELIHVVTEAHRSTNAQGSHWKQKRKFLPEDIGQSPMASMPDGDKVDLEAFSEFTKIITPAITRVVDFAKKLPMFSELPCEDQIILLKGCCMEIMSLRAAVRYDPESETLTLSGEMAVKREQLKNGGLGVVSDAIFDLGKSLSAFNLDDTEVALLQAVLLMSSDRTGLICVDKIEKCQETYLLAFEHYINYRKHNIPHFWPKLLMKVTDLRMIGACHASRFLHMKVECPTELFPPLFLEVFEDQEV
